Changes are numbered by the printed parent chain. No constants are given. Whether binding was seen depends on the method and setting. Some entries that bind do so weakly or less than the wild type. Values belong to the binder of their own block, whether it stands above or below them.
Molecular target: proMyostatin (proGDF8), species not stated for the assay (UniProt O14793)
Assay: ForteBio Octet BLI, compared with parental Ab1

Chains of the proteins cited; added tags and fusions are not shown. Residues count along the entry.
UniProt O14793, residues 24-375: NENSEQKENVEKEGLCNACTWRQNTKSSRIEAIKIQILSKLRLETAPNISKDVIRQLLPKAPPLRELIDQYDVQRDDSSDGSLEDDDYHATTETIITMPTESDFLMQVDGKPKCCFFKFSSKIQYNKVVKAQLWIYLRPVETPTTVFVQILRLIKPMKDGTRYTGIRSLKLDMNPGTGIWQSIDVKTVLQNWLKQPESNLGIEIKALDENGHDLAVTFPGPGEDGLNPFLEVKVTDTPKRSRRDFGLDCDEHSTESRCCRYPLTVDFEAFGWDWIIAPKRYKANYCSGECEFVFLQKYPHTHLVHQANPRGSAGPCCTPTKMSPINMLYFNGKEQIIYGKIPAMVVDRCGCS

binding: binds
B1: Ab3, affinity optimized variant of Ab1 (antibody, IgG4, V domains shown)
VH: QIQLVQSGGGVVQPGRSLRLSCAASGFAFSSYGMHWVRQAPGKGLEWVAVISYDGSIKYYADSVKGRFTISRDNSKNTLYLQMNSLRAEDTAVYYCARDLLVRFLEWSHKYGMDVWGQGTTVTVSS
VL: QPVLTQPPSASGTPGQRVTISCSGSTSNIGSNTVHWYQQLPGTAPKLLIYSDDQRPSGVPDRFSGSKSGTSASLVISGLQSDDEADYYCAAWDESLNGVFGGGTKLTVLG

binding: binds
B2: Ab5, affinity optimized variant of Ab1 (antibody, IgG4, V domains shown)
VH: B1 VH with S56N, I57N
VL: B1 VL with T26S, S31G

Reference: patent US20190365891A1
